{"sequences": {"note": "By UniProt entry, the sequences of proteins in these tests, tags left out.", "UniProt P11473, whole entry, looked up": "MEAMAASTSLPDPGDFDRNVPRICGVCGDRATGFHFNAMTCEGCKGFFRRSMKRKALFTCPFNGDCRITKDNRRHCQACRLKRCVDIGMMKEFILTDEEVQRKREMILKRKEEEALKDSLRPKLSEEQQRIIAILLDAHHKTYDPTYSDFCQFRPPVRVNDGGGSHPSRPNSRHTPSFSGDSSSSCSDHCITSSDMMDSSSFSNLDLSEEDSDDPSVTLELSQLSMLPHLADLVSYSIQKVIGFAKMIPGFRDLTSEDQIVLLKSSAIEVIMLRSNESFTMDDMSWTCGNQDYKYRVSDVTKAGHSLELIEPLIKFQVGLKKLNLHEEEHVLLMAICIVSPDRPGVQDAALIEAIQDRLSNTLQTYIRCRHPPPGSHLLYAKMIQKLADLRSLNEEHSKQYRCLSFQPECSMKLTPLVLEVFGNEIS"}, "source": "PubChem BioAssay AID504847", "about": "(National Center for Advancing Translational Sciences (NCATS), 2011)", "note": "“And” between values parts separate entries of the source, which are not always exact repeats. Equal entries are not always repeated. The whole screen tested about 400,000 compounds, of which about 3,700 (0.93%) were called active. Inconclusive results, whose numbers are uncertain, are shown with a selection of clear calls. Calls come from the whole dose curve; as a rule, active = well fitted inhibition curve with a large enough effect; inconclusive = small, poorly fitted or top-dose-only effect, or another doubt; inactive = no such curve, though single readings can be large or run the other way. A potency beside an inconclusive call is a rough fit, not a confirmed value. A structure can be active in one record and inactive in another. % is set by controls: 0 for no effect and ±100 for the full control effect; potency is the fitted concentration of half-maximal effect.", "data": [{"molecular_target": "Vitamin D3 receptor (Homo sapiens) (UniProt P11473)", "test": "Inhibitors of the vitamin D receptor (VDR): qHTS", "settings": "VDR-SRC2-3 peptide fluorescence polarization, 2 h; max response, negative = inhibition: active compounds read low", "how_it_was_run": "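VDR–SRC2-3 interaction, FP format. Cmpds 23 nl via pintool, brief spin, 2 h ambient incubation.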", "values": [{"molecule": "COc1ccccc1-c1c(C(F)(F)F)oc2cc(OC(=O)c3ccc([N+](=O)[O-])cc3)ccc2c1=O", "max response, negative = inhibition": "inactive: -16.7%"}, {"molecule": "CCC(=O)N1CCN(c2ccc(NC(=O)c3ccc([N+](=O)[O-])o3)cc2)CC1", "max response, negative = inhibition": "inactive: 7.89%"}, {"molecule": "COc1cc2c(C#CCCO)c(-c3ccc(C#N)cc3)oc(=O)c2cc1OC", "max response, negative = inhibition": "inactive: -15.4%"}, {"molecule": "Cc1ccc(S(=O)(=O)c2c(COC(=O)c3ccccc3Cl)c(-c3ccccc3)nn2C)cc1", "max response, negative = inhibition": "inactive: 5.53%"}, {"molecule": "O=C(Cn1nc(Cl)nc1Cl)c1ccc([N+](=O)[O-])cc1", "max response, negative = inhibition": "inactive: 1.31%"}, {"molecule": "CC(C)C1Nc2ccc(C(=O)O)cc2C2C=CCC21", "note": "(configuration not stated)", "Potency": "inconclusive: 89.1 µM [inhibitor, single point]"}, {"molecule": "CCN(C(=O)CSc1nc(-c2ccccc2)c(-c2ccccc2)[nH]1)C1CCS(=O)(=O)C1", "note": "(configuration not stated)", "Potency": "inconclusive: 44.7 µM [inhibitor, single point]"}, {"molecule": "CCOc1ccccc1NC(=O)C1CCCC1", "max response, negative = inhibition": "inactive: 11.5%"}, {"molecule": "C[C@]12CC[C@@H]3c4ccc(O)cc4CC[C@H]3[C@@H]1CC[C@@H]2OC(=O)CCC1CCCC1", "Potency": "inconclusive: 89.1 µM [inhibitor, partial curve, poor fit]"}, {"molecule": "O=C1NC(=S)S/C1=C\\c1ccc(SCc2ccccc2)o1", "Potency": "inconclusive: 79.4 µM [inhibitor, single point]"}, {"molecule": "S=C(Nc1ccc2cn[nH]c2c1)Nc1ccccc1Cl", "Potency": "inconclusive: 100 µM [inhibitor, single point]"}, {"molecule": "COCCn1c(C)cc(O)c(C(c2ccccc2F)N2CCN(c3ccccc3)CC2)c1=O", "note": "(configuration not stated)", "max response, negative = inhibition": "inactive: -10.2%"}, {"molecule": "O=C1NNC(c2ccccc2)=N/C1=C\\c1ccccc1", "Potency": "inconclusive: 79.4 µM [inhibitor, partial curve, poor fit]"}, {"molecule": "COc1cc(/C=C2/C(=O)N(c3cccc(Br)c3)N=C2C)cc(OC)c1O", "Potency": "inconclusive: 56.2 µM [inhibitor, partial curve, poor fit]"}, {"molecule": "O=C(NC(=S)Nc1cccc(C(F)(F)F)c1)c1csnn1", "Potency": "inconclusive: 89.1 µM [inhibitor, partial curve, poor fit]"}, {"molecule": "CCOc1ccc(C(=O)NC2C(=O)N3C(C(=O)O)=C(COC(C)=O)CSC23)cc1OCC", "note": "(configuration not stated)", "Potency": "inconclusive: 70.8 µM [inhibitor, partial curve]"}, {"molecule": "CC1=C(C(=O)Nc2ccc(C(=O)N3CCN(c4cccc(Cl)c4)CC3)cc2)SCCO1", "max response, negative = inhibition": "inactive: 5.37%"}, {"molecule": "COc1ccc(C(=O)NCc2nc(-c3cccc(C)c3)no2)cc1OC", "max response, negative = inhibition": "inactive: -0.664%"}, {"molecule": "Cc1ccccc1NCc1ccc(O)c2ncccc12", "Potency": "inconclusive: 56.2 µM [inhibitor, partial curve, poor fit]"}, {"molecule": "Cn1nnnc1SCC1=C(C(=O)O)N2C(=O)C(NC(=O)C(OC=O)c3ccccc3)C2SC1", "note": "(configuration not stated)", "Potency": "inconclusive: 79.4 µM [inhibitor, single point]"}, {"molecule": "COCc1c(N)c(C)nc(Cl)c1C#N", "Potency": "inconclusive: 56.2 µM [inhibitor, single point]"}, {"molecule": "O=C(O)COc1ccccc1/C=N/n1c(C2CCCCC2)n[nH]c1=S", "Potency": "inconclusive: 11.2 µM [inhibitor, partial curve, poor fit]"}, {"molecule": "COc1cc(OC)c(C=CC(=O)c2ccccc2O)c(OC)c1", "max response, negative = inhibition": "inactive: 6.84%"}, {"molecule": "COc1cccc(-c2nc(NCc3cccs3)c3ccccc3n2)c1", "Potency": "active: 50.1 µM"}, {"molecule": "N#CC1=C(N)N(c2ccc(Br)cc2)C2=C(C(=O)CCC2)C1c1cccnc1", "note": "(configuration not stated)", "Potency": "inconclusive: 63.1 µM [inhibitor, single point]"}, {"molecule": "O=C(CSc1nnc(-c2cccs2)n1CC1CCCO1)c1cc2ccccc2o1", "note": "(configuration not stated)", "Potency": "inconclusive: 89.1 µM [inhibitor, single point]"}, {"molecule": "Cc1ccc(NC(=O)c2cc(N3C(=O)C=CC3=O)ccc2N2CCOCC2)cc1Cl", "Potency": "active: 44.7 µM"}, {"molecule": "O=C(c1ccco1)N1CCC2(CCN(Cc3cc(C(F)(F)F)cc(C(F)(F)F)c3)CC2)CC1", "Potency": "inconclusive: 44.7 µM [inhibitor, partial curve]"}, {"molecule": "CCn1c(CSc2nnc(-c3ccncc3)n2C)nc2cc(C(=O)O)ccc21", "Potency": "inconclusive: 14.1 µM [inhibitor, full curve, poor fit]"}, {"molecule": "Cc1ccc(OCC(=O)N(C)CC(=O)Nc2ccc(F)cc2)c([N+](=O)[O-])n1", "Potency": "inconclusive: 79.4 µM [inhibitor, partial curve, poor fit]"}, {"molecule": "CC(=O)N(CC(=O)Nc1sc(C)c(C)c1C(N)=O)Cc1ccccc1", "max response, negative = inhibition": "inactive: -3.34%"}, {"molecule": "Cc1ccc(S(=O)(=O)N2CCCC2C(=O)OCC(=O)Nc2ccc3c(c2)OCO3)cc1", "note": "(configuration not stated)", "max response, negative = inhibition": "inactive: 2.15%"}, {"molecule": "O=C(O)CSc1nnnn1C1CCCCC1", "Potency": "active: 70.8 µM"}, {"molecule": "O=C(CSc1ncn[nH]1)c1ccc2c(c1)OCCO2", "Potency": "inconclusive: 50.1 µM [inhibitor, partial curve, poor fit]"}, {"molecule": "Cc1ccc(Cl)cc1NC(=S)NCc1cccn1C", "Potency": "inconclusive: 89.1 µM [inhibitor, partial curve, poor fit]"}, {"molecule": "COc1ccc(N(CC(=O)N2CCN(c3ccccc3F)CC2)S(=O)(=O)c2c(C)noc2C)cc1", "max response, negative = inhibition": "inactive: -2.54% and inactive: 32.4%"}, {"molecule": "CN1CCc2cccc3c2[C@H]1Cc1ccc(O)c(O)c1-3", "Potency": "active: 35.5 µM"}, {"molecule": "Cc1nnc(SCC(=O)c2ccccc2F)n1Cc1ccccc1", "Potency": "inconclusive: 79.4 µM [inhibitor, partial curve, poor fit]"}, {"molecule": "CCC(Cc1c(I)cc(I)c(N)c1I)C(=O)O", "note": "(configuration not stated)", "Potency": "inconclusive: 25.1 µM [inhibitor, full curve]"}, {"molecule": "CCC(C)(C)NC(=O)C(c1cccc(OC)c1OC)N(CC(C)C)C(=O)CCC(=O)Nc1cc(C)on1", "note": "(configuration not stated)", "Potency": "inconclusive: 79.4 µM [inhibitor, partial curve, poor fit]"}, {"molecule": "NS(=O)(=O)c1cccc(NC(=O)c2cccc(S(=O)(=O)N3CCCCCC3)c2)c1", "Potency": "inconclusive: 79.4 µM [inhibitor, single point]"}, {"molecule": "Cc1ccccc1Oc1nc2ccccn2c(=O)c1/C=C(\\C#N)C(=O)Nc1c(C)n(C)n(-c2ccccc2)c1=O", "Potency": "inconclusive: 56.2 µM [inhibitor, partial curve, poor fit]"}, {"molecule": "COc1ccc(Sc2ccc(/C=C3\\C(=O)NN(c4ccccc4)C3=O)o2)cc1", "Potency": "inconclusive: 89.1 µM [inhibitor, partial curve, poor fit]"}, {"molecule": "CCn1c(=O)c(=O)[nH]c2cc(C(=O)NCC3CCCCC3)ccc21", "max response, negative = inhibition": "inactive: -18.9%"}, {"molecule": "O=C1CN(C(=O)COC(=O)c2ccc([N+](=O)[O-])o2)c2ccccc2N1", "max response, negative = inhibition": "inactive: -6.57%"}, {"molecule": "Cc1cccc(C=CC(=O)c2ccccc2)c1", "Potency": "active: 44.7 µM"}, {"molecule": "COc1ccc(F)c(CN2CCC(CO)(Cc3cccc(C(F)(F)F)c3)CC2)c1", "max response, negative = inhibition": "inactive: -19%"}, {"molecule": "CCNC(=S)N(Cc1ccco1)Cc1cc2cc(OCC)ccc2[nH]c1=O", "Potency": "inconclusive: 100 µM [inhibitor, partial curve, poor fit]"}, {"molecule": "C(=N\\Nc1nncc2ccccc12)/c1ccccn1", "max response, negative = inhibition": "inactive: 9.34%"}, {"molecule": "O=C(Nc1ccc(F)c(Cl)c1)c1cncs1", "Potency": "inconclusive: 3.98 µM [inhibitor, full curve, poor fit]"}, {"molecule": "NS(=O)(=O)c1cc(-c2nn[nH]n2)c(NCc2cccs2)cc1Cl", "Potency": "inconclusive: 89.1 µM [inhibitor, partial curve, poor fit]"}, {"molecule": "CCOC(=O)N1CCc2c(sc(NC(=O)CN3CCOCC3)c2C(=O)Nc2ccccc2)C1", "Potency": "inconclusive: 89.1 µM [inhibitor, single point]"}, {"molecule": "O=C1c2ccccc2C(Nc2ccc(S(=O)(=O)N3CCCCC3)cc2)N1Cc1ccco1", "note": "(configuration not stated)", "Potency": "inconclusive: 89.1 µM [inhibitor, single point]"}, {"molecule": "Nc1nc(N2CCOCC2)cc(=O)[nH]1", "max response, negative = inhibition": "inactive: -11.4%"}, {"molecule": "COC(=O)C1(CCSC)NC(c2ccccc2F)C2C(=O)N(c3ccc4c(c3)OCCO4)C(=O)C21", "note": "(configuration not stated)", "max response, negative = inhibition": "inactive: 12.6%"}, {"molecule": "Oc1ccc(Br)cc1C1C=C(c2ccc3c(c2)OCO3)NC(c2cccc(F)c2)N1", "note": "(configuration not stated)", "Potency": "inconclusive: 56.2 µM [inhibitor, partial curve, poor fit]"}, {"molecule": "Cc1ccc(NC(=O)Cc2ccccc2Cl)cc1S(=O)(=O)N(C)C", "max response, negative = inhibition": "inactive: 12.5%"}, {"molecule": "Cc1c(C(=O)N2CC(C)OC(C)C2)sc2nc(-c3ccc(F)cc3)cn12", "note": "(configuration not stated)", "Potency": "inconclusive: 50.1 µM [inhibitor, partial curve, poor fit]"}, {"molecule": "CCCCNc1ncnc2sc3c(c12)CCN(CCC)C3", "Potency": "inconclusive: 89.1 µM [inhibitor, single point]"}, {"molecule": "CCn1nc(C)cc1-c1nnc(Sc2ncc([N+](=O)[O-])s2)n1C", "Potency": "active: 7.94 µM"}, {"molecule": "N=c1nc(-c2ccccc2)n(-c2ccccc2)s1", "Potency": "active: 12.6 µM"}, {"molecule": "COc1cc(/C=C/C(=O)O)cc(S(=O)(=O)N2CCCc3ccccc32)c1OC", "Potency": "inconclusive: 7.08 µM [inhibitor, partial curve, poor fit]"}, {"molecule": "COc1cc(/C=C/C(=O)c2ccc(O)cc2O)ccc1O", "Potency": "inconclusive: 44.7 µM [inhibitor, full curve]"}, {"molecule": "Cc1cc(C)n(CC(=O)n2c3c(c4ccccc42)CCCC3)n1", "Potency": "inconclusive: 12.6 µM [inhibitor, partial curve, poor fit]"}, {"molecule": "CCc1cc2c3c(c(=O)oc2cc1OC(C)C(=O)O)CCCC3", "note": "(configuration not stated)", "Potency": "inconclusive: 0.631 µM [inhibitor, full curve, poor fit]"}, {"molecule": "Cc1c(C(=O)Nc2nc(-c3ccccn3)cs2)oc2ccccc12", "Potency": "active: 89.1 µM"}, {"molecule": "Oc1ccc(Nc2ccc3ccccc3c2)cc1", "Potency": "inconclusive: 56.2 µM [inhibitor, partial curve, poor fit]"}]}]}
